# The other results are listed elsewhere or left out. The list holds hits alone, and they repeat only in part.
# Chains of the proteins cited; added tags and fusions are not shown.
# CALR, P27797, UniProt P27797, whole entry: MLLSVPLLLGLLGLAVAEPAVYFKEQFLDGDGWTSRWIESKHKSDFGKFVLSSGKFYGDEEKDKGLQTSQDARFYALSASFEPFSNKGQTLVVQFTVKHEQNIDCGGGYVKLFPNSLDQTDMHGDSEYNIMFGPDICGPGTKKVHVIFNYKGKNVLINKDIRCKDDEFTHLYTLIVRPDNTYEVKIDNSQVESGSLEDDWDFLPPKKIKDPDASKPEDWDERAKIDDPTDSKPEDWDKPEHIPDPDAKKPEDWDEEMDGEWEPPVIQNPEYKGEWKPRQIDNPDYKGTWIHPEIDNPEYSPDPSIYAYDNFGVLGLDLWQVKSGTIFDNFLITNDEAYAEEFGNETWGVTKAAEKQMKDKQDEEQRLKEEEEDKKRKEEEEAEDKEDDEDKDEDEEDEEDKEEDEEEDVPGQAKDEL
# IGF2BP3, O00425, UniProt O00425, whole entry: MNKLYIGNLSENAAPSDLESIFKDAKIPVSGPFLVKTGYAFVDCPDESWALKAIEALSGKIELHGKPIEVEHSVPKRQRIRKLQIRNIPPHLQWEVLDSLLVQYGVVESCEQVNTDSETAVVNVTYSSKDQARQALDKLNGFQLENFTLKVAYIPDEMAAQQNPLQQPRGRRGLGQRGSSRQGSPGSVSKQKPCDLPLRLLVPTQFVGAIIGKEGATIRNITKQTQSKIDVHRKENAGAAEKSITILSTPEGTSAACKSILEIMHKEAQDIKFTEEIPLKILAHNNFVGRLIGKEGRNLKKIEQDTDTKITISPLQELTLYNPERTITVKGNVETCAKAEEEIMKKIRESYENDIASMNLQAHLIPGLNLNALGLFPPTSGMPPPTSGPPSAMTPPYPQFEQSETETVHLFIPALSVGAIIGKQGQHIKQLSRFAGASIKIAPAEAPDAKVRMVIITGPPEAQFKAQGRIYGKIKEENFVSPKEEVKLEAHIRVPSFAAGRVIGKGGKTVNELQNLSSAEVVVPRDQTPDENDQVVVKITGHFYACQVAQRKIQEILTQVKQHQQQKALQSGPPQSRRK
# HSP90AB2P, Q58FF8, UniProt Q58FF8, whole entry: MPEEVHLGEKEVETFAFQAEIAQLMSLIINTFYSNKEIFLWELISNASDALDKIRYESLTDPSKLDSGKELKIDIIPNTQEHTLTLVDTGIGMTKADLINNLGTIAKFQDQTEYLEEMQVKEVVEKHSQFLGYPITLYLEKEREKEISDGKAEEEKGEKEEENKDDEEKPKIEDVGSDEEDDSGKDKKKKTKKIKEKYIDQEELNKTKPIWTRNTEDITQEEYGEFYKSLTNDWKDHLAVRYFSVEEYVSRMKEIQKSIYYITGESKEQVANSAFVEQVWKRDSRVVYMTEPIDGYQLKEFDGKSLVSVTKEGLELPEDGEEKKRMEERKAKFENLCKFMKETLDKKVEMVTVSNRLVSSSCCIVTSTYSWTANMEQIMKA
# Columns and labels:
# Assay in all cases: PRISMA enrichment of interactor (LFQ) in peptide spot vs all other peptide spots (log2 fold change); higher = stronger / more specific binding of the interactor to the peptide
# BRIX1, Q8TDN6 = target: BRIX1, Q8TDN6
# Method: (§1)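 PRISMA: 15-aa overlapping tiles (offset 8 aa) of 60 microproteins, plus SOS1/GLUT1 control peptides, were spot-synthesized on cellulose membranes in triplicate. Membranes were incubated with benzonase-treated HEK293T lysate, and bound proteins were identified by LC-MS/MS with LFQ. Enrichment is the log2 fold change of each protein in one spot versus all other spots. Only interactors passing the significance cutoff are listed.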
# CALR, P27797 = target: CALR, P27797
# Method: as §1
# CFAP20, Q9Y6A4 = target: CFAP20, Q9Y6A4
# Method: as §1
# CHAMP1, Q96JM3 = target: CHAMP1, Q96JM3
# Method: as §1
# CNOT8, Q9UFF9 = target: CNOT8, Q9UFF9
# Method: as §1
# COPS2, P61201 = target: COPS2, P61201
# Method: as §1
# CPSF2, Q9P2I0 = target: CPSF2, Q9P2I0
# Method: as §1
# DDB1, Q16531 = target: DDB1, Q16531
# Method: as §1
# EBNA1BP2, Q99848 = target: EBNA1BP2, Q99848
# Method: as §1
# FAR1, Q8WVX9 = target: FAR1, Q8WVX9
# Method: as §1
# GLUD1, P00367 = target: GLUD1, P00367
# Method: as §1
# HCFC1, P51610 = target: HCFC1, P51610
# Method: as §1
# HDAC1, Q13547 = target: HDAC1, Q13547
# Method: as §1
# IGF2BP1, Q9NZI8 = target: IGF2BP1, Q9NZI8
# Method: as §1
# IGF2BP3, O00425 = target: IGF2BP3, O00425
# Method: as §1
# LAS1L, Q9Y4W2 = target: LAS1L, Q9Y4W2
# Method: as §1
# MRPL21, Q7Z2W9 = target: MRPL21, Q7Z2W9
# Method: as §1
# MRPL37, Q9BZE1 = target: MRPL37, Q9BZE1
# Method: as §1
# MRPS2, Q9Y399 = target: MRPS2, Q9Y399
# Method: as §1
# MT-ATP6, P00846 = target: MT-ATP6, P00846
# Method: as §1
# NEK7, Q8TDX7 = target: NEK7, Q8TDX7
# Method: as §1
# NOC3L, Q8WTT2 = target: NOC3L, Q8WTT2
# Method: as §1
# NSFL1C, Q9UNZ2 = target: NSFL1C, Q9UNZ2
# Method: as §1
# PCBP1, Q15365 = target: PCBP1, Q15365
# Method: as §1
# PES1, O00541 = target: PES1, O00541
# Method: as §1
# PSMD14, O00487 = target: PSMD14, O00487
# Method: as §1
# REXO4, Q9GZR2 = target: REXO4, Q9GZR2
# Method: as §1
# TIMM8B, Q9Y5J9 = target: TIMM8B, Q9Y5J9
# Method: as §1
# BIRC6, Q9NR09 = target: BIRC6, Q9NR09
# Method: as §1
# C19orf47, Q8N9M1 = target: C19orf47, Q8N9M1
# Method: as §1
# [1] = substrate: CS, O75390
# Method: as §1
# PTGES3, Q15185 = target: PTGES3, Q15185
# Method: as §1
# TCAF1, Q9Y4C2 = target: TCAF1, Q9Y4C2
# Method: as §1
# BOLA3, Q53S33 = target: BOLA3, Q53S33
# Method: as §1
# DDX5, P17844 = target: DDX5, P17844
# Method: as §1
# ITCH, Q96J02 = target: ITCH, Q96J02
# Method: as §1
# PSMG1, O95456 = target: PSMG1, O95456
# Method: as §1
# TUBAL3, A6NHL2 = target: TUBAL3, A6NHL2
# Method: as §1
# ZMAT2, Q96NC0 = target: ZMAT2, Q96NC0
# Method: as §1
# C19orf53, Q9UNZ5 = target: C19orf53, Q9UNZ5
# Method: as §1
# CDKN2AIPNL, Q96HQ2 = target: CDKN2AIPNL, Q96HQ2
# Method: as §1
# CSRP2, Q16527 = target: CSRP2, Q16527
# Method: as §1
# DDX42, Q86XP3 = target: DDX42, Q86XP3
# Method: as §1
# G3BP2, Q9UN86 = target: G3BP2, Q9UN86
# Method: as §1
# HSP90AB2P, Q58FF8 = target: HSP90AB2P, Q58FF8
# Method: as §1
# MRPL27, Q9P0M9 = target: MRPL27, Q9P0M9
# Method: as §1
# PHAX, Q9H814 = target: PHAX, Q9H814
# Method: as §1
# PUS1, Q9Y606 = target: PUS1, Q9Y606
# Method: as §1
# TXNDC5, Q8NBS9 = target: TXNDC5, Q8NBS9
# Method: as §1
# BAZ1B, Q9UIG0 = target: BAZ1B, Q9UIG0
# Method: as §1
# FAM32A, Q9Y421 = target: FAM32A, Q9Y421
# Method: as §1
# HSD17B12, Q53GQ0 = target: HSD17B12, Q53GQ0
# Method: as §1
# ITPA, Q9BY32 = target: ITPA, Q9BY32
# Method: as §1
# MRPS23, Q9Y3D9 = target: MRPS23, Q9Y3D9
# Method: as §1
# SRI, P30626 = target: SRI, P30626
# Method: as §1
binder,measurement,setting,value
SPILLSLPSPVIHKM [RP11-12K22.1],PRISMA enrichment of interactor (log2),"BRIX1, Q8TDN6",10
same,PRISMA enrichment of interactor (log2),"CALR, P27797",6.36
same,PRISMA enrichment of interactor (log2),"CFAP20, Q9Y6A4",6.03
same,PRISMA enrichment of interactor (log2),"CHAMP1, Q96JM3",4.46
same,PRISMA enrichment of interactor (log2),"CNOT8, Q9UFF9",7.92
same,PRISMA enrichment of interactor (log2),"COPS2, P61201",4.75
same,PRISMA enrichment of interactor (log2),"CPSF2, Q9P2I0",5.18
same,PRISMA enrichment of interactor (log2),"DDB1, Q16531",7.18
same,PRISMA enrichment of interactor (log2),"EBNA1BP2, Q99848",5.39
same,PRISMA enrichment of interactor (log2),"FAR1, Q8WVX9",5.22
same,PRISMA enrichment of interactor (log2),"GLUD1, P00367",4.53
same,PRISMA enrichment of interactor (log2),"HCFC1, P51610",5.48
same,PRISMA enrichment of interactor (log2),"HDAC1, Q13547",4.6
same,PRISMA enrichment of interactor (log2),"IGF2BP1, Q9NZI8",4.64
same,PRISMA enrichment of interactor (log2),"IGF2BP3, O00425",8.81
same,PRISMA enrichment of interactor (log2),"LAS1L, Q9Y4W2",4.77
same,PRISMA enrichment of interactor (log2),"MRPL21, Q7Z2W9",4.81
same,PRISMA enrichment of interactor (log2),"MRPL37, Q9BZE1",4.43
same,PRISMA enrichment of interactor (log2),"MRPS2, Q9Y399",5.42
same,PRISMA enrichment of interactor (log2),"MT-ATP6, P00846",6.83
same,PRISMA enrichment of interactor (log2),"NEK7, Q8TDX7",5.23
same,PRISMA enrichment of interactor (log2),"NOC3L, Q8WTT2",5.09
same,PRISMA enrichment of interactor (log2),"NSFL1C, Q9UNZ2",5.4
same,PRISMA enrichment of interactor (log2),"PCBP1, Q15365",5.19
same,PRISMA enrichment of interactor (log2),"PES1, O00541",6.21
same,PRISMA enrichment of interactor (log2),"PSMD14, O00487",8.07
same,PRISMA enrichment of interactor (log2),"REXO4, Q9GZR2",5.08
same,PRISMA enrichment of interactor (log2),"TIMM8B, Q9Y5J9",6.02
KKYSHWKRGKVIVIS [RP11-432J24.5],PRISMA enrichment of interactor (log2),"BIRC6, Q9NR09",3.85
same,PRISMA enrichment of interactor (log2),"C19orf47, Q8N9M1",6.45
same,PRISMA enrichment of interactor (log2),[1],4.75
same,PRISMA enrichment of interactor (log2),"PTGES3, Q15185",4.79
same,PRISMA enrichment of interactor (log2),"TCAF1, Q9Y4C2",4.54
SERSVFSLWFLSPAS [TBX5-AS1],PRISMA enrichment of interactor (log2),"BOLA3, Q53S33",4.21
same,PRISMA enrichment of interactor (log2),"DDX5, P17844",5.97
same,PRISMA enrichment of interactor (log2),"ITCH, Q96J02",4.19
same,PRISMA enrichment of interactor (log2),"PSMG1, O95456",4.19
same,PRISMA enrichment of interactor (log2),"TUBAL3, A6NHL2",4.17
same,PRISMA enrichment of interactor (log2),"ZMAT2, Q96NC0",4.23
DMCFLLSWINVSTWA [RP11-432J24.5_2],PRISMA enrichment of interactor (log2),"BOLA3, Q53S33",4.5
same,PRISMA enrichment of interactor (log2),"C19orf53, Q9UNZ5",5.83
same,PRISMA enrichment of interactor (log2),"CDKN2AIPNL, Q96HQ2",4.31
same,PRISMA enrichment of interactor (log2),"CSRP2, Q16527",4.93
same,PRISMA enrichment of interactor (log2),"DDX42, Q86XP3",5.75
same,PRISMA enrichment of interactor (log2),"DDX5, P17844",6.6
same,PRISMA enrichment of interactor (log2),"G3BP2, Q9UN86",5.13
same,PRISMA enrichment of interactor (log2),"HSP90AB2P, Q58FF8",4.97
same,PRISMA enrichment of interactor (log2),"MRPL27, Q9P0M9",6.62
same,PRISMA enrichment of interactor (log2),"PHAX, Q9H814",4.84
same,PRISMA enrichment of interactor (log2),"PUS1, Q9Y606",4.76
same,PRISMA enrichment of interactor (log2),"TXNDC5, Q8NBS9",6.67
MLAEIHPKAGLQSLQ [CRNDE],PRISMA enrichment of interactor (log2),"BAZ1B, Q9UIG0",5.1
same,PRISMA enrichment of interactor (log2),"FAM32A, Q9Y421",5.34
same,PRISMA enrichment of interactor (log2),"HSD17B12, Q53GQ0",5.57
same,PRISMA enrichment of interactor (log2),"ITPA, Q9BY32",7.21
same,PRISMA enrichment of interactor (log2),"MRPS23, Q9Y3D9",4.06
same,PRISMA enrichment of interactor (log2),"SRI, P30626",4.83

# A second format for part of the listing above:
binder	measurement	setting	value
SPILLSLPSPVIHKM [RP11-12K22.1]	PRISMA enrichment of interactor (log2)	REXO4, Q9GZR2	5.08
same	PRISMA enrichment of interactor (log2)	TIMM8B, Q9Y5J9	6.02
KKYSHWKRGKVIVIS [RP11-432J24.5]	PRISMA enrichment of interactor (log2)	BIRC6, Q9NR09	3.85
same	PRISMA enrichment of interactor (log2)	C19orf47, Q8N9M1	6.45
same	PRISMA enrichment of interactor (log2)	[1]	4.75

# — the supplement of paper PMC10032668
